No constants are given. Whether binding was seen depends on the method and setting. Binding seen in cells or lysates may run through a third protein. Some results given as binding are weak or reduced against the parent protein; the word gives no strength.
Legend:
[1] = target: T1, Thioredoxin-1 (Trx1) (mouse (endogenous in hair follicles)) (UniProt P10639); test: co-IP; protein lysates of mouse anagen hair follicles; endogenous proteins; immunoprecipitated by anti-Trx1, Foxp1 detected
T1 sequence: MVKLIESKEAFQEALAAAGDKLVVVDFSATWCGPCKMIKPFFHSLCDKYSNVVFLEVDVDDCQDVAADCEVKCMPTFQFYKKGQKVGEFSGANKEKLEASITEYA

Amino acid sequences for entries named in this document (tags omitted).
UniProt P58462: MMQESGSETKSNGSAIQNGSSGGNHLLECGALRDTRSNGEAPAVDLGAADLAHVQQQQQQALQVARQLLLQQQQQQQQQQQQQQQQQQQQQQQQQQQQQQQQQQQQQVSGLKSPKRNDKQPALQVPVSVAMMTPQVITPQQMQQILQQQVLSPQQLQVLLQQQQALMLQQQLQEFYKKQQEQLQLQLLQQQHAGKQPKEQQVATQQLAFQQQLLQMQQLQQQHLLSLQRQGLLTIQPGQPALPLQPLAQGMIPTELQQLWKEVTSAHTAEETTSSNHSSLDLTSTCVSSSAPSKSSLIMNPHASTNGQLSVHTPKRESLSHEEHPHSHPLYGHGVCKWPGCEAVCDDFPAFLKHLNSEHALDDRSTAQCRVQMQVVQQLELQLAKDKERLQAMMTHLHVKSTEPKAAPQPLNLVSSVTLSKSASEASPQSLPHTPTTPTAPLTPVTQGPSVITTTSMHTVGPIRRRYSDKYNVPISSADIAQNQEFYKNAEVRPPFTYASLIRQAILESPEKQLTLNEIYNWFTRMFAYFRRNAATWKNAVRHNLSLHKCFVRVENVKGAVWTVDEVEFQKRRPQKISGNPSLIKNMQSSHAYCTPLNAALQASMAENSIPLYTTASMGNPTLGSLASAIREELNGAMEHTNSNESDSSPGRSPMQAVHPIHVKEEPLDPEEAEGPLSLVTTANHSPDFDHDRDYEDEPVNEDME

[2] = target: T2, Trx1 (UniProt P10639); test: co-IP; HeLa cells transfected with Foxp1-His and Trx1; cell lysates immunoprecipitated by anti-Trx1 antibody and detected by anti-His antibody
T2 sequence: T1 sequence

binding [1] | binding [2] | Substance
binds |  | Foxp1 (from UniProt P58462 1-705)
 | binds | Foxp1-His (from UniProt P58462 1-705)
